# The whole screen tested about 290,000 compounds, of which about 110 (0.038%) were called active. Inconclusive results, whose numbers are uncertain, are shown with a selection of clear calls. The call rests on the fitted dose curve; in most records, active means well fitted inhibition curve with a large enough effect in the polarisation, with a control signal flat (not every such curve was filed as active); inconclusive means small, poorly fitted or top-dose-only effect, or effect the other way, or a change in a side signal; inactive means no such curve, though single readings can be large or run the other way; the % refers to the polarisation. Potencies of inconclusive entries are doubtful fits and often do not repeat. “Side channel” marks fits to a control or component signal instead of the main read-out.
# The chains behind the UniProt entries cited, without tags or fusion partners.
# UniProt Q03164, whole entry, looked up: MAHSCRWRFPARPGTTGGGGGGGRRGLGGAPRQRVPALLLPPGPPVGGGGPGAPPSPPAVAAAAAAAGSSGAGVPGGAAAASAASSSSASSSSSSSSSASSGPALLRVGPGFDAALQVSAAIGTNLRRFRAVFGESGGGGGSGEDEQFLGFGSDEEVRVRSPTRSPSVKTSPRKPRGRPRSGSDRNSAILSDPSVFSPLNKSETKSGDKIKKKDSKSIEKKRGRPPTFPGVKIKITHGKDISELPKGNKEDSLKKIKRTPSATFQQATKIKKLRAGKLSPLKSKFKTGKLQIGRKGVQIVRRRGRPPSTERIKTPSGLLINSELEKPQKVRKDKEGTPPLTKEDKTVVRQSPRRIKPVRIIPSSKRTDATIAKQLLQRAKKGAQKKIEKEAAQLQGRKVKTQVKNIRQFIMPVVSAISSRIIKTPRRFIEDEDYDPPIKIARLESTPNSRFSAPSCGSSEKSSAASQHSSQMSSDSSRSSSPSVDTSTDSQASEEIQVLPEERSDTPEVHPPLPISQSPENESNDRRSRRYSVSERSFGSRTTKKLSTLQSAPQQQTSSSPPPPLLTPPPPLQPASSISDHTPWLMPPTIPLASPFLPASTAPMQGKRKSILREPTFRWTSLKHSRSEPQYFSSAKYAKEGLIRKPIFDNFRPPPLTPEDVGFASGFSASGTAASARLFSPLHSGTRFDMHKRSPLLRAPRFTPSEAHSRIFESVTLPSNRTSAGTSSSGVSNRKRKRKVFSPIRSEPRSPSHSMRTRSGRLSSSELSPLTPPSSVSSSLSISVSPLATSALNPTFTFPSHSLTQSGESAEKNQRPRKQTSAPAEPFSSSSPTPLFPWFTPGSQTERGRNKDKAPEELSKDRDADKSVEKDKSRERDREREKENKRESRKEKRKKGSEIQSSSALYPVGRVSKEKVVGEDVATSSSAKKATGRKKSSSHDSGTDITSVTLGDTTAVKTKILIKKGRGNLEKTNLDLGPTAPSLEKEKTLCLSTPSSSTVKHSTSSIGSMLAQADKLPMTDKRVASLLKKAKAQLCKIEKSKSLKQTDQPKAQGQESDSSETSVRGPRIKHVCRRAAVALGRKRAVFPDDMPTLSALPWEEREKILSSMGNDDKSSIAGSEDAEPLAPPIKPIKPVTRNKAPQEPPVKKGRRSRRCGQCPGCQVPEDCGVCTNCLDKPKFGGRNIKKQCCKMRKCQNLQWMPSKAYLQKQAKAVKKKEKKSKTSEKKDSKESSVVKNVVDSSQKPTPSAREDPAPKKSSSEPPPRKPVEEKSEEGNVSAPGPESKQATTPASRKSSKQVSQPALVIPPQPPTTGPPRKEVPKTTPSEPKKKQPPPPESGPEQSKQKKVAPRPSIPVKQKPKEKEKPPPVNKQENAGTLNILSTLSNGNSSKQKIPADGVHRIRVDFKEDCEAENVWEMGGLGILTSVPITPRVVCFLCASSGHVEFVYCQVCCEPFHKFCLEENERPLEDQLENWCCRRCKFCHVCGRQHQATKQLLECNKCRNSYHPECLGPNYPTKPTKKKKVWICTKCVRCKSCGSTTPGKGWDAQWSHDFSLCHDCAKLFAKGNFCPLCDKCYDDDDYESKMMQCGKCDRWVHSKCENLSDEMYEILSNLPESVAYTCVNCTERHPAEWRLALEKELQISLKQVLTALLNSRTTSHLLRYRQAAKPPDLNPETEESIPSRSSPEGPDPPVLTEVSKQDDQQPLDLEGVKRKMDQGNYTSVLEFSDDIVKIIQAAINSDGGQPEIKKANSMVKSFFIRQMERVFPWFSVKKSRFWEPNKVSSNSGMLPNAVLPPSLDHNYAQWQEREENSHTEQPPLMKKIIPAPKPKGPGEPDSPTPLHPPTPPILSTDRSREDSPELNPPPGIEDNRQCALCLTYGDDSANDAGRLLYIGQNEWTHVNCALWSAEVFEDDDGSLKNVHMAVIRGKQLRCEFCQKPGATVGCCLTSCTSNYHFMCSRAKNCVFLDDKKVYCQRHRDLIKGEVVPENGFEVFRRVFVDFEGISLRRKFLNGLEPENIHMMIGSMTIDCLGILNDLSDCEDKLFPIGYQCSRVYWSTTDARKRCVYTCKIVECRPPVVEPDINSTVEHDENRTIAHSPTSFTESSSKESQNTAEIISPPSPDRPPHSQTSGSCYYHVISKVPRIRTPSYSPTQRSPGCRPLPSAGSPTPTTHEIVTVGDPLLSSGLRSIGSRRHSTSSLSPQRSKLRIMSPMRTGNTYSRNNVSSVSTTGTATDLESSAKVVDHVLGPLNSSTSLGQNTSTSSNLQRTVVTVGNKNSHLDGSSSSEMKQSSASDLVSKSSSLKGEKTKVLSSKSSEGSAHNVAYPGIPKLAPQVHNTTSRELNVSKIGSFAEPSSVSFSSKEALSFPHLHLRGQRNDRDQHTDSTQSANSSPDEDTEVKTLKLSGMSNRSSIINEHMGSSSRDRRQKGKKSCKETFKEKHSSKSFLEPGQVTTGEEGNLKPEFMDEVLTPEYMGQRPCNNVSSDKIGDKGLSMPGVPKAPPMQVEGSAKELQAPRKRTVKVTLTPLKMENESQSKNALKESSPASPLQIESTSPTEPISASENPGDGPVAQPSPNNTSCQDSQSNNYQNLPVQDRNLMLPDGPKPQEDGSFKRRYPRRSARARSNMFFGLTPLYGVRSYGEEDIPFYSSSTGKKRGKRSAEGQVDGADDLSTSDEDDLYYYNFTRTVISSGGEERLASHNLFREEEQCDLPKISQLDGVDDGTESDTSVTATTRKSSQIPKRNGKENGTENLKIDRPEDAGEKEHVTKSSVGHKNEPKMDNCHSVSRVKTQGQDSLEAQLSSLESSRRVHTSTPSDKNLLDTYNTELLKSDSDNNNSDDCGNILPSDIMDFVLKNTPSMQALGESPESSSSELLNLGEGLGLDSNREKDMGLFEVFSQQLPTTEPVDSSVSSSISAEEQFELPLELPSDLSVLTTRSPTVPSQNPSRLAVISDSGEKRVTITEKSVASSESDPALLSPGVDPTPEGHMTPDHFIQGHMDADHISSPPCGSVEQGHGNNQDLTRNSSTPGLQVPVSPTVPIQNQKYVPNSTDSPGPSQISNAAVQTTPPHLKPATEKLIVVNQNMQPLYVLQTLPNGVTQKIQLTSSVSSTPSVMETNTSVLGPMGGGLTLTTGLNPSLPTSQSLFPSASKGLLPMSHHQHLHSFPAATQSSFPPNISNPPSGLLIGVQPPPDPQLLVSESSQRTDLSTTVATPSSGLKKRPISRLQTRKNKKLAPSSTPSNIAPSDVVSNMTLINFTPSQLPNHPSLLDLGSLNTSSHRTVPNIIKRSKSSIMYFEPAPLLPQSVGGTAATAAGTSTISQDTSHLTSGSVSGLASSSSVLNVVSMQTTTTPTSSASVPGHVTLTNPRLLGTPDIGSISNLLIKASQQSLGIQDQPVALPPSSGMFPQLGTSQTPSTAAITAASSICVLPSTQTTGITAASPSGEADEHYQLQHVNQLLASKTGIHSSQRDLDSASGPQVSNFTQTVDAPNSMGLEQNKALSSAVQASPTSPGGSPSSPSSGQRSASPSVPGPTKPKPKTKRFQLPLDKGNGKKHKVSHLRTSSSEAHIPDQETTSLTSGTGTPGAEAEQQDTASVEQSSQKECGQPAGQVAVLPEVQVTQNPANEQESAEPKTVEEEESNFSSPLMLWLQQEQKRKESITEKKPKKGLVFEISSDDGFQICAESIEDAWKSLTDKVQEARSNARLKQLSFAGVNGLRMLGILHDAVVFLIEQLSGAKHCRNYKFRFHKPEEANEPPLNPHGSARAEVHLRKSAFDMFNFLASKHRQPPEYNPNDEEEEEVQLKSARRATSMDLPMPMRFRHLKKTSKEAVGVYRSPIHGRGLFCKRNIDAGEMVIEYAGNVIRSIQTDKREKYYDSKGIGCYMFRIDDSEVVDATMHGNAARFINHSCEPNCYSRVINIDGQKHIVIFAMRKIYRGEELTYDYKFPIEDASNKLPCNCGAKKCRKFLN
# Target: Histone-lysine N-methyltransferase 2A (Homo sapiens) (UniProt Q03164)
# Experiment: qHTS Fluorescence Polarization Assay for Inhibitors of MLL CXXC domain - DNA interaction
# Conditions: MLL-CXXC / FITC-HOXA9 DNA fluorescence polarization; activity change, negative = inhibition: at 115 µM (top of the series)
# Summary of the method: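 Steps: dispense CXXC domain solution (7 uM) → pin compounds or unlabeled HOX-A9 DNA control → 5 min ambient → add FLSN-HOX-A9 solution (50 nM) → spin → 30 min ambient → fluorescence polarization. Tris pH 7.5/NaCl/DTT/BSA buffer.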
# Potency means the concentration at half of the fitted maximal effect.
Compound,Potency,"activity change, negative = inhibition"
O=C(COc1ccccc1/C=C\c1[nH]c(=O)[nH]c(=O)c1[N+](=O)[O-])Nc1ccccc1,"inconclusive: 39.8 µM [inhibitor, partial curve]",–
CCN(CC)c1ccc(N=C2C(=O)Nc3ccccc32)cc1,–,inactive: -1.68%
O=C1NCC2(CCN(CCc3ccccc3)CC2)O1,"inconclusive: 10 µM [quencher, side channel, single point]",–
O=C(Nc1nc2ccccc2s1)c1ccc(OCC2CCCO2)cc1 (centres undefined),–,inactive: -4.95%
COc1cc(/C=C2\SC(=S)N(C(Cc3ccccc3)C(=O)O)C2=O)ccc1O (centres undefined),"inconclusive: 28.2 µM [fluorescent, side channel, partial curve]",–
COc1cc(CC(=O)Nc2ccc(N3CCOCC3)cc2)cc(OC)c1OC,–,inactive: -4.39%
COc1ccc(/C(C)=N/NC(=O)CN(c2ccc(OC)cc2)S(=O)(=O)c2ccccc2)cc1,"inconclusive: 44.7 µM [fluorescent, side channel, single point]",–
COc1cccc(N2CCN(c3ccc4nnc(CCC(=O)Nc5cc(C)ccn5)n4n3)CC2)c1,"inconclusive: 0.178 µM [quencher, side channel, full curve, poor fit]",–
COCc1nc2oc3ccc(F)cc3c(=O)c2cc1C(=O)OC,"inconclusive: 31.6 µM [fluorescent, side channel, partial curve]",–
CCOC(=O)NC(=O)/C(N=Nc1ccc(C(F)(F)F)cc1)=C(\C)O,"inconclusive: 14.1 µM [inhibitor, single point]",–
CCN(CCN(C)C)C(=O)c1ccc2c(c1NCCO)C(=O)c1ccccc1C2=O,"inconclusive: 28.2 µM [quencher, side channel, partial curve, poor fit]",–
COc1ccc(NS(=O)(=O)c2cccc(NC(=O)C34CCC(CC3)C4)c2)cc1,"inconclusive: 7.94 µM [fluorescent, side channel, partial curve]",–
CCOC(=O)NC(=O)c1cn(-c2ccc(OC)cc2)c(=O)[nH]c1=O,"inconclusive: 70.8 µM [inhibitor, single point]",–
O=[n+]1c2c(n([O-])c3cc(F)c(N4CCCC4)cc31)CCCC2,"inconclusive: 35.5 µM [fluorescent, side channel, partial curve]",–
COc1cc2nc(=S)n(CCCN3CCOCC3)c(N)c2cc1OC,–,inactive: -4.06%
O=S(=O)(Nc1ncccn1)c1ccc(NC(=S)N2CCN(Cc3ccc(F)cc3Cl)CC2)cc1,"inconclusive: 12.6 µM [fluorescent, side channel, single point]",–
C/C(=N\Nc1nncc2ccccc12)c1ccc(C(C)(C)C)cc1,"inconclusive: 89.1 µM [fluorescent, side channel, single point]",–
COc1ccc(CN2CCN(Cc3cccn3-c3ncccn3)CC2CCO)c(C)c1C (centres undefined),–,inactive: -1.19%
O=C(CCN1C(=O)/C(=C/c2cccs2)SC1=S)NNC(=O)c1cccc(O)c1,"inconclusive: 35.5 µM [fluorescent, partial curve]",–
CCOC(=O)C1CCN(S(=O)(=O)c2ccc(-c3cc(C(F)(F)F)n(C)n3)s2)CC1,–,inactive: -3.25%

Compound,Potency,"activity change, negative = inhibition"
Cc1c(CN(C)C)c2c(n1C)C(=O)c1ccc(Br)cc1-2,"inconclusive: 35.5 µM [quencher, side channel, single point]",–
CNC(=O)N(O)C1N(/N=C/c2c(F)cccc2Cl)C(=S)SC1(C)C (centres undefined),"inconclusive: 44.7 µM [fluorescent, side channel, partial curve]",–
CCOC(=O)/C(C#N)=N\Nc1cc(Cl)ccc1OC,"inconclusive: 39.8 µM [fluorescent, side channel, partial curve]",–
CN(C)c1ccc(NC(=O)C2C3C=CC(C3)C2C(=O)O)cc1 (centres undefined),"inconclusive: 35.5 µM [inhibitor, single point]",–
O=c1cc(O)c2ccc(O)cc2o1,"inconclusive: 89.1 µM [inhibitor, single point]",–
Cc1ccc(C(=O)OCC(=O)Nc2ncc(C(F)(F)F)cc2Cl)cc1NC(=O)c1ccco1,"inconclusive: 70.8 µM [fluorescent, side channel, single point]",–
COC(=O)c1ccccc1NC(=O)C1CC=CCC1C(=O)O (centres undefined),–,inactive: 5.92%
C=C(C)CNC(=S)Nc1cccc2cnccc12,"inconclusive: 15.8 µM [fluorescent, side channel, partial curve]",–
C=C1SC(=Nc2c(C)cc(C)cc2C)N(C(=O)c2sc3ccccc3c2Cl)C12CCCCC2,"inconclusive: 14.1 µM [fluorescent, side channel, single point]",–
S=C(NC1CCCCC1)N1CCN(C2CCCCC2)CC1,"inconclusive: 10 µM [inhibitor, partial curve]",–
CCN(CC)C(=O)c1[nH]cnc1C(=O)NCC(=O)OCc1ccccc1,"inconclusive: 2.82 µM [inhibitor, full curve, poor fit]",–
O=C(Nc1nnc(-c2ccccc2)s1)c1cc(S(=O)(=O)N2CCOCC2)c(Cl)cc1Cl,"inconclusive: 31.6 µM [inhibitor, partial curve]",–
CCOc1ccc(C(=O)n2cc(C(=O)OC)c3ccccc32)cc1,"inconclusive: 89.1 µM [fluorescent, side channel, single point]",–
COc1n[nH]c(C(=O)Nc2nc3ccccc3s2)c1[N+](=O)[O-],"inconclusive: 35.5 µM [inhibitor, single point]",–
C=CCn1cccc(C(=O)Nc2ccc(F)cc2)c1=O,"inconclusive: 35.5 µM [fluorescent, side channel, single point]",–
O=C(NCCCN1CCCC1=O)Nc1ccccc1F,"inconclusive: 7.94 µM [quencher, side channel, partial curve]",–
COC(=O)Cn1c(=NC(=O)c2ccc(OC)c(OC)c2)sc2cc(OC)ccc21,–,inactive: -2.63%
CCCn1cnc2cc(NCc3ccc(Br)cc3)ccc21,–,inconclusive: -4.77% [phenotype inactive]
O=C(NCc1ccccc1)c1ccccc1OCC(=O)N1CCCCC1,"inconclusive: 31.6 µM [fluorescent, side channel, single point]",–

# Record cards, as listed above.
# Cc1ccc(C(=O)OCC(=O)Nc2ncc(C(F)(F)F)cc2Cl)cc1NC(=O)c1ccco1 reads Potency: inconclusive: 70.8 µM [fluorescent, side channel, single point]
# COc1cc(/C=C2\SC(=S)N(C(Cc3ccccc3)C(=O)O)C2=O)ccc1O (centres undefined) reads Potency: inconclusive: 28.2 µM [fluorescent, side channel, partial curve]
